Experimental data reported in patent EP4321174A1.
These are yes or no findings as the source states them, for the method shown. In cells and extracts the contact can be indirect. Some results given as binding are weak or reduced against the parent protein; the word gives no strength.

Molecular target: APP 751 (amyloid precursor protein isoform 751) (UniProt P05067)
Experiment: co-immunoprecipitation from HEK293FT lysates, western blot

B1: CNTN4 #10 (full length, Ig1 to FN4) (receptor, UniProt Q8IWV2 19-1000, looked up)
chain: DDSTLHGPIFIQEPSPVMFPLDSEEKKVKLNCEVKGNPKPHIRWKLNGTDVDTGMDFRYSVVEGSLLINNPNKTQDAGTYQCTATNSFGTIVSREAKLQFAYLDNFKTRTRSTVSVRRGQGMVLLCGPPPHSGELSYAWIFNEYPSYQDNRRFVSQETGNLYIAKVEKSDVGNYTCVVTNTVTNHKVLGPPTPLILRNDGVMGEYEPKIEVQFPETVPTAKGATVKLECFALGNPVPTIIWRRADGKPIARKARRHKSNGILEIPNFQQEDAGLYECVAENSRGKNVARGQLTFYAQPNWIQKINDIHVAMEENVFWECKANGRPKPTYKWLKNGEPLLTRDRIQIEQGTLNITIVNLSDAGMYQCLAENKHGVIFSNAELSVIAVGPDFSRTLLKRVTLVKVGGEVVIECKPKASPKPVYTWKKGRDILKENERITISEDGNLRIINVTKSDAGSYTCIATNHFGTASSTGNLVVKDPTRVMVPPSSMDVTVGESIVLPCQVTHDHSLDIVFTWSFNGHLIDFDRDGDHFERVGGQDSAGDLMIRNIQLKHAGKYVCMVQTSVDRLSAAADLIVRGPPGPPEAVTIDEITDTTAQLSWRPGPDNHSPITMYVIQARTPFSVGWQAVSTVPELIDGKTFTATVVGLNPWVEYEFRTVAANVIGIGEPSRPSEKRRTEEALPEVTPANVSGGGGSKSELVITWETVPEELQNGRGFGYVVAFRPYGKMIWMLTVLASADASRYVFRNESVHPFSPFEVKVGVFNNKGEGPFSPTTVVYSAEEEPTKPPASIFARSLSATDIEVFWASPLEKNRGRIQGYEVKYWRHEDKEENARKIRTVGNQTSTKITNLKGSVLYHLAVKAYNSAGTGPSSATVNVTTRKPPPSQPPGNIIWNSSDSKIILNWDQVKALDNESEVKGYKVLYRWNRQSSTSVIETNKTSVELSLPFDEDYIIEIKPFSDGGDGSSSEQIRIPKISNAYARGS
  binding: binds
